Results: paper PMC7862700
Only a part is listed here, and it is no random draw. At the low end of the ranking the order means little.

Target: SPI1 (UniProt P17947)
Assay: DAPPL (digital affinity profiling via proximity ligation, sequencing)
Conditions: 10 mM Tris-HCl pH 7.5, 50 mM NaCl, 1 mM DTT, 4% glycerol, room temperature, 30 min; GST-TFs on glutathione beads, 16-mer random dsDNA library, 0.1% …; high values mean tight binding; double strand, one strand shown; scale: fold enrichment (6-mer frequency, TF over GST control)

Row | Sequence | binding signal
1 | ACACTT | 1.95
2 | ATTTTT | 1.18
3 | CAATCC | 1.12
4 | ATCCCT | 1.16
5 | ACTGCT | 1.46
6 | TACAAG | 0.952
7 | CTTCCT | 5.09
8 | CTATAT | 1.32
9 | CTGGCC | 1.28
10 | AAATGA | 1.45
11 | CCTCTA | 1.33
12 | CCTATG | 1.21
13 | TTCATC | 1.27
14 | CGCTAC | 1.16
15 | TCACAG | 0.966
16 | GACATC | 1.26
17 | CGACGT | 1.08
18 | CTTACG | 1.09
19 | TTTGGT | 1.27
20 | GATACG | 1.04
21 | TATTTC | 2.02
22 | AAGTCT | 1.27
23 | CTGCGA | 1.33
24 | TACTAG | 1

Row | Sequence | binding signal
25 | CTCCTT | 1.71
26 | CGTATG | 1.07
27 | TCTGTC | 1.1
28 | TCCCAA | 1.2
29 | GGTATT | 1.16
30 | TGCCAA | 1.12
31 | CGAAGC | 1.2
32 | CCGATA | 1.09
33 | GATTCC | 1.14
34 | CGGCTC | 1.33
35 | CTAATG | 1.26
36 | CAAATA | 1.14
37 | CTGCCC | 1.27
38 | CTTGTG | 1.46
39 | TCTTCT | 1.22
40 | CACTCG | 1.01
41 | GCTCTG | 1.11
42 | AAGTAC | 1.62
43 | CCGCGT | 1.12
44 | AAAGAC | 1.1
45 | AAGTCC | 1.36
46 | CGAAAA | 1.1
47 | CGTCTA | 1.25
48 | TCTCCC | 1.47

Single values from the results shown:
GGTATT | binding signal: 1.16
CGAAGC | binding signal: 1.2
CTTCCT | binding signal: 5.09

Next entries

Row | Sequence | binding signal
49 | AGCTCC | 1.25
50 | CCGGAA | 5.33
51 | AACGTA | 0.949
52 | ATGGCT | 1.28
53 | ATAACT | 1.22
54 | TAAATA | 1.29
55 | TGAAAC | 1.28
56 | CTTAGA | 1.11
57 | TTAGTA | 0.999
58 | AAGCGA | 1.07
59 | CAAATT | 1.15
60 | GCTCCT | 1.4
61 | AATTCC | 1.89
62 | TCGCGC | 0.993
63 | TAACCC | 1.18
64 | TTAACC | 1.23
65 | GAAGTT | 2.02
66 | CGACTC | 1.35
67 | CGGCTA | 1.16
68 | CGCTTT | 1.59
69 | TTGCGT | 1.11
70 | TATTGT | 1.19
